From PubChem BioAssay AID504834 (National Center for Advancing Translational Sciences (NCATS), 2011)
Among all 320,000 compounds or so, about 22,000 (6.9%) were called active. The shares of active, inactive and inconclusive entries below differ from those in the screen. Calls come from the whole dose curve; as a rule, active = well fitted inhibition curve with a large enough effect; inconclusive = small, poorly fitted or top-dose-only effect, or another doubt; inactive = no such curve, though single readings can be large or run the other way. A potency beside an inconclusive call is a rough fit, not a confirmed value.

Assay: Primary qHTS for delayed death inhibitors of the malarial parasite plastid, 96 hour incubation
Details: P. falciparum luciferase reporter growth; series mostly up to 28.7 µM; activity change, negative = inhibition: at the top concentration
Summary of the method: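 Erythrocytes infected with luciferase-expressing P. falciparum were dispensed at 2% hematocrit and 0.05% parasitemia (final), then incubated with compounds 96 hours at 37 C in 5% CO2. Luminescence after detection reagent addition reported growth.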
% is set by controls: 0 for no effect and ±100 for the full control effect; potency is the fitted concentration of half-maximal effect.

| Compound | activity change, negative = inhibition | Potency |
| --- | --- | --- |
| Nc1[nH]c(N=NC(=O)c2ccccc2)c2ccccc12 | inactive: 70.5% |  |
| C=CCn1c(SCC(=O)N(CCOC)c2c(N)n(CC(C)C)c(=O)[nH]c2=O)nc2ccccc21 |  | inconclusive: 4.15 µM [inhibitor, full curve, poor fit] |
| Cn1cccc1/C=C1/C(=O)NC(=O)N(Cc2ccccc2)C1=O | inactive: 0% |  |
| COc1ccc2oc(=O)cc(-c3cc4ccccc4o3)c2c1 | inactive: 19.1% |  |
| CCOc1ccc(CN2C(=O)CCC2(C)C(=O)NCc2cccnc2)cc1 (stereo not given) |  | inconclusive: 4.15 µM [inhibitor, single point] |
| COc1cc2c(c(OC)c1OC)-c1ccc(NC(=O)c3ccc(F)cc3)c(=O)cc1[C@@H](NC(C)=O)CC2 |  | inconclusive: 2.94 µM [inhibitor, full curve, poor fit] |
| CCCCN(CCCC)CC(O)c1cc(Cl)cc2c1-c1ccc(Cl)cc1/C2=C/c1ccc(Cl)cc1 (stereo not given) |  | active: 0.0213 µM |
| O=C(Nc1ccc(N2CCCC2)c(Cl)c1)c1ccc(Br)o1 |  | active: 4.65 µM |
| Cc1cccc(NC(=O)COC(=O)CNC(=O)C2CCCCC2)c1 | inactive: 42.7% |  |
| Cc1cc(S(=O)(=O)NC(C)C)ccc1OCC(=O)N1CCOCC1 | inactive: 15.8% |  |
| NC(=O)N/N=C/c1c(Sc2nnnn2-c2ccccc2)nc2ccccn2c1=O |  | inconclusive: 0.165 µM [inhibitor, full curve, poor fit] |
| Cc1ccc(-n2nc3c4c(cccc4c2=O)-c2ccccc2-3)cc1 |  | inconclusive: 14.7 µM [inhibitor, partial curve, poor fit] |
| CCOC(=O)c1c(NC(=O)CN2C(=O)NC3(CCCCC3)C2=O)sc(C)c1-c1ccc(C)cc1 |  | active: 9.28 µM |
| COc1ccc(N=Nc2cc(-c3ccccc3)ccc2O)cc1 | inactive: 70.2% |  |
| CCNC(=O)NC(=O)C(C)Sc1nnc(COc2ccccc2Cl)o1 (stereo not given) |  | inconclusive: 8.28 µM [inhibitor, partial curve] |
| C=CCn1cc(C(=O)NCC2CCCO2)c(=O)c2cc(S(=O)(=O)N3CCCCCC3)ccc21 (stereo not given) | inactive: 3.59% |  |
| Cn1nc(C(F)(F)F)c(/C=N/OCc2c(Cl)cccc2Cl)c1Cl | inactive: 0% |  |
| CC12CCC(C(=Nc3ccc(N=C4C(=O)C5(C)CCC4C5(C)C)cc3)C1=O)C2(C)C | inactive: 69.8% |  |
| CC(C)(C)c1ccc(NC(=O)Nc2ccc3ccccc3n2)cc1 |  | inconclusive: 10.4 µM [inhibitor, partial curve, poor fit] |
| COc1ccc(N=C2SCC(=O)N2Cc2ccccc2)cc1 |  | active: 9.28 µM |
| C[C@H]1CN(CCc2ccccc2)C(=O)[C@@H]1CC(=O)NCc1ccccc1 | inactive: 44.4% |  |
| Cc1c(/C(O)=C2\C(=O)C(=O)N(CCN(C)C)C2c2ccccc2)cnn1-c1ccccc1 (stereo not given) | inactive: 202% |  |
| Cc1cccc(C(=O)Oc2ccccc2/C=N/Nc2ccc([N+](=O)[O-])cc2)c1 |  | inconclusive: 11.7 µM [inhibitor, single point] |
| O=C(COc1ccc(F)cc1)N(Cc1cccc(Br)c1)C1CCS(=O)(=O)C1 (stereo not given) |  | inconclusive: 18.5 µM [inhibitor, single point] |

Looked up one by one from the list above (three):

| Compound | activity change, negative = inhibition | Potency |
| --- | --- | --- |
| O=C(Nc1ccc(N2CCCC2)c(Cl)c1)c1ccc(Br)o1 |  | active: 4.65 µM |
| Cc1cccc(C(=O)Oc2ccccc2/C=N/Nc2ccc([N+](=O)[O-])cc2)c1 |  | inconclusive: 11.7 µM [inhibitor, single point] |
| C=CCn1c(SCC(=O)N(CCOC)c2c(N)n(CC(C)C)c(=O)[nH]c2=O)nc2ccccc21 |  | inconclusive: 4.15 µM [inhibitor, full curve, poor fit] |

More entries

| Compound | activity change, negative = inhibition | Potency |
| --- | --- | --- |
| Cc1ccc(C(=O)N/N=C\c2sccc2C)cn1 |  | inconclusive: 1.65 µM [inhibitor, partial curve, poor fit] |
| Cc1ccccc1N1CC(C(=O)N2CC(C)OC(C)C2)CC1=O (stereo not given) |  | inconclusive: 10.4 µM [inhibitor, single point] |
| O=C(c1ccccc1)c1ccccc1N/C=C/c1nnnn1-c1ccccc1 |  | inconclusive: 0.037 µM [inhibitor, full curve, poor fit] |
| O=C(Nc1cc(Br)c(O)c(Br)c1)c1cccc(NC(=O)c2ccco2)c1 |  | active: 7.38 µM |
| COc1ccc(CCNCc2cc(C)n(-c3ccc(OC)cc3)c2C)cc1 |  | inconclusive: 9.28 µM [inhibitor, single point] |
| COCCn1c(=O)c2c(nc3n2CCN3c2ccc(C)cc2)n(C)c1=O | inactive: 47.7% |  |
| CCC1(OC(=O)c2ccccc2)CC(C)N(C)CC1C (stereo not given) |  | inconclusive: 18.5 µM [inhibitor, single point] |
| O=C(CCc1nc(-c2ccccc2)no1)NC1CCCCCC1 | inactive: -1.37% |  |
| CCn1c(C(=O)O)c(CC(=O)Nc2ccccc2OC)c2ccccc21 |  | inconclusive: 18.5 µM [inhibitor, single point] |
| COc1ccccc1N1CCN(C2CCCN(C(=O)CCc3ccccn3)C2)CC1 (stereo not given) | inactive: -21.9% |  |
| CCCn1c(C2CC(=O)N(c3cc(OC)ccc3OC)C2)nc2ccccc21 (stereo not given) |  | inconclusive: 18.5 µM [inhibitor, partial curve, poor fit] |
| CCS(=O)(=O)NCc1cn2ccsc2n1 |  | inconclusive: 11.7 µM [inhibitor, partial curve, poor fit] |
| CC1CN(CC(=O)Nc2ccc(S(N)(=O)=O)cc2)CC(C)O1 (stereo not given) | inactive: 28.8% |  |
| CCc1cc(=O)oc2cc(C)c(CN3CCCC(C)C3)c(O)c12 (stereo not given) |  | inconclusive: 11.7 µM [inhibitor, single point] |
| Cc1ccccc1-n1c(SCc2c(C)noc2C)nnc1-c1c[nH]c2ccccc12 |  | active: 14.7 µM |
| COc1ccc2c(c1)cc(C(=O)N[C@@H](CCSC)C(=O)N1CCC[C@H]1C(=O)O)n2C | inactive: 3% |  |
| O=C1c2nc3cc(-c4ccccc4)[nH]n3c(=O)c2CN1Cc1ccccc1 | inactive: 25.7% |  |
| Cc1cccc(NC(=O)c2cc(N3C(=O)CCC3=O)ccc2Cl)n1 |  | inconclusive: 0.0928 µM [inhibitor, full curve] |
| O=C(c1ccc(OC2CCN(Cc3ccccc3OC(F)F)CC2)cc1)N1CCCC1 |  | inconclusive: 18.5 µM [inhibitor, single point] |
| CCOc1ccccc1NC(=S)N1CCC(c2nc3ccccc3o2)CC1 |  | inconclusive: 18.5 µM [inhibitor, single point] |
| COc1cc(C(Nc2ccc(S(=O)(=O)N3CCC(C)CC3)cc2)C(=O)NCC2CCCO2)cc(OC)c1OC (stereo not given) |  | inconclusive: 11.7 µM [inhibitor, single point] |
| CCc1ccccc1NC(=O)NC1CC2CCC(C1)N2Cc1cccs1 (stereo not given) |  | inconclusive: 9.28 µM [inhibitor, single point] |
| CCN(CC)S(=O)(=O)c1ccc2c(c1)c(C(=O)O)cn2C |  | active: 6.57 µM |
| O=c1c2ccccc2nnn1CSc1nnc(-c2cccc(S(=O)(=O)N3CCCCC3)c2)o1 |  | inconclusive: 0.0033 µM [inhibitor, full curve, poor fit] |

| Compound | activity change, negative = inhibition | Potency |
| --- | --- | --- |
| N#Cc1ccccc1N1CCN(C(=O)c2ccc(NC(=O)c3ccc(Br)o3)cc2)CC1 |  | inconclusive: 10.4 µM [inhibitor, single point] |
| CCCn1c(C)cc(/C=C(\C#N)C(=O)OCC(=O)Nc2cccc(OC)c2)c1C |  | inconclusive: 4.15 µM [inhibitor, partial curve, poor fit] |
| CCOc1ccccc1NC(=O)CSc1nc2ccccc2c(=O)n1CC1CCCO1 (stereo not given) |  | inconclusive: 13.1 µM [inhibitor, single point] |
| CCOC(=O)c1c(C)nn(-c2ccc(NC(=O)CSCC(=O)O)cc2)c1C | inactive: 9.03% |  |
| COc1cccc(NC(=O)Cc2nnc(SCC(=O)NC(C)c3ccccc3)n2C)c1 (stereo not given) |  | inconclusive: 16.5 µM [inhibitor, partial curve, poor fit] |
| O=C(NCCC1=CCCCC1)NC1CCCCC1 | inactive: 14.6% |  |
| Cc1cc(C)c(C)c(S(=O)(=O)NCc2ccncc2)c1C |  | inconclusive: 9.28 µM [inhibitor, single point] |
| CCS(=O)(=O)c1ccc(-c2cccc(NC(=O)COc3ccc(Cl)cc3)c2)nn1 |  | inconclusive: 0.928 µM [inhibitor, full curve, poor fit] |
| CC1CCN(C(=O)Cn2c(=O)n(CCc3ccccc3)c(=O)c3ccccc32)CC1 |  | inconclusive: 18.5 µM [inhibitor, single point] |
| CC(C)NC(=O)C(c1ccc(F)cc1)N(C(=O)CCC(=O)Nc1ccccn1)C1CCCC1 (stereo not given) | inactive: -3.89% |  |
| CCN1CCN(CCNC(=O)CCc2c(C)c3c(C)nn(-c4ccccc4)c3n(C)c2=O)CC1 | inactive: 10.6% |  |
| CC(=O)Nc1cccc(Cl)c1C(=O)O |  | inconclusive: 10.4 µM [inhibitor, partial curve, poor fit] |
| CC(C)C1NC(=S)N(C2CCCCC2)C1=O (stereo not given) | inactive: 30.4% |  |
| Fc1ccc(CSc2nnc(CN3CCOCC3)n2-c2ccccc2)c(Cl)c1 |  | inconclusive: 9.28 µM [inhibitor, single point] |
| COc1cccc(NC(=O)CN(C)C(=O)c2cccc(S(=O)(=O)Nc3ccccc3OC)c2)c1 |  | inconclusive: 11.7 µM [inhibitor, partial curve] |
| CCn1cc(C(=O)N2CCOCC2)c(=O)c2cc(S(=O)(=O)N(C)C3CCCCC3)ccc21 |  | inconclusive: 11.7 µM [inhibitor, partial curve, poor fit] |
| O=C(NCCCN1CCC(Cc2ccccc2)CC1)C1CC(=O)N(C2CCCCCC2)C1 (stereo not given) |  | inconclusive: 14.7 µM [inhibitor, partial curve, poor fit] |
| Cc1c(NC(=O)Cn2cc([N+](=O)[O-])cn2)c(=O)n(-c2ccccc2)n1C |  | inconclusive: 8.28 µM [inhibitor, single point] |
| CCc1nnc(NC(=O)CSc2sc3c(O)cc(=O)[nH]c3c2C#N)s1 |  | inconclusive: 9.28 µM [inhibitor, partial curve, poor fit] |
| Cc1cc(C)n2c(SC(C)C(=O)NC3(C#N)CCCCC3)nnc2n1 (stereo not given) |  | inconclusive: 0.117 µM [inhibitor, full curve, poor fit] |
| CCOC(=O)c1[nH]c2ccccc2c1NC(=O)CC | inactive: 3.42% |  |
| CC(C)NC(=S)NN=C1c2ccccc2-c2ccccc21 |  | inconclusive: 18.5 µM [inhibitor, single point] |
